Data reported in patent US7244837B2, “Insect monoamine transporter and methods of use thereof” (The University of Western Ontario, priority 1999, dated 2007).

Biological target: T1, OA/TAT (octopamine/tyramine transporter) (Trichoplusia ni, UniProt Q95VZ4, D309A/R312W)
T1 sequence (Q95VZ4 75-744 D309A/R312W): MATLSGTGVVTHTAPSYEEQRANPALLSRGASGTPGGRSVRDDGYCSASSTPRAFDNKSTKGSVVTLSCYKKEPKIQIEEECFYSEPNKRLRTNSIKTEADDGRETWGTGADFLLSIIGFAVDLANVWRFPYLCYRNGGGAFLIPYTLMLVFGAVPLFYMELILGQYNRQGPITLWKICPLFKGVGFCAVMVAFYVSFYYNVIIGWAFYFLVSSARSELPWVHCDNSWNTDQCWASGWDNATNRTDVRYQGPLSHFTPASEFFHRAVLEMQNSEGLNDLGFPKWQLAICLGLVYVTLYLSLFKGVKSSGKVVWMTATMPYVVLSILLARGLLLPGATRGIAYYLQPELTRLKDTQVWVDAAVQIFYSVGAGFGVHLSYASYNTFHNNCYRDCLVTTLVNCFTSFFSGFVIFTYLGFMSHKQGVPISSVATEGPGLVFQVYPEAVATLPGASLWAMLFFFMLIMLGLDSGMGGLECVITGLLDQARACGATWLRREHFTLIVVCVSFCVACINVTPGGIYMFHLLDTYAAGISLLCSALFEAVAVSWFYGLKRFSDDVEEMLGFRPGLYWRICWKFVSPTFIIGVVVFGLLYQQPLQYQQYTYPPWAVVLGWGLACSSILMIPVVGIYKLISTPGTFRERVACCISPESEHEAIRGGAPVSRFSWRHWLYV
Assay: 3H-dopamine uptake by OA/TAT expressed in baculovirus-infected Sf21 insect cells (transport assay)
Format: cell-based
Conditions: read-out: % Inhibition of 3H-Dopamine uptake by OA/TAT

SMILES: Nc1nc2ccc(OC(F)(F)F)cc2s1 [Riluzole]
- inhibition at 100 µM: -11.3%
